# Primary screen of a compound library

The chains behind the UniProt entries cited, without tags or fusion partners. Residues count along the entry.
UniProt I6X8D2, whole entry: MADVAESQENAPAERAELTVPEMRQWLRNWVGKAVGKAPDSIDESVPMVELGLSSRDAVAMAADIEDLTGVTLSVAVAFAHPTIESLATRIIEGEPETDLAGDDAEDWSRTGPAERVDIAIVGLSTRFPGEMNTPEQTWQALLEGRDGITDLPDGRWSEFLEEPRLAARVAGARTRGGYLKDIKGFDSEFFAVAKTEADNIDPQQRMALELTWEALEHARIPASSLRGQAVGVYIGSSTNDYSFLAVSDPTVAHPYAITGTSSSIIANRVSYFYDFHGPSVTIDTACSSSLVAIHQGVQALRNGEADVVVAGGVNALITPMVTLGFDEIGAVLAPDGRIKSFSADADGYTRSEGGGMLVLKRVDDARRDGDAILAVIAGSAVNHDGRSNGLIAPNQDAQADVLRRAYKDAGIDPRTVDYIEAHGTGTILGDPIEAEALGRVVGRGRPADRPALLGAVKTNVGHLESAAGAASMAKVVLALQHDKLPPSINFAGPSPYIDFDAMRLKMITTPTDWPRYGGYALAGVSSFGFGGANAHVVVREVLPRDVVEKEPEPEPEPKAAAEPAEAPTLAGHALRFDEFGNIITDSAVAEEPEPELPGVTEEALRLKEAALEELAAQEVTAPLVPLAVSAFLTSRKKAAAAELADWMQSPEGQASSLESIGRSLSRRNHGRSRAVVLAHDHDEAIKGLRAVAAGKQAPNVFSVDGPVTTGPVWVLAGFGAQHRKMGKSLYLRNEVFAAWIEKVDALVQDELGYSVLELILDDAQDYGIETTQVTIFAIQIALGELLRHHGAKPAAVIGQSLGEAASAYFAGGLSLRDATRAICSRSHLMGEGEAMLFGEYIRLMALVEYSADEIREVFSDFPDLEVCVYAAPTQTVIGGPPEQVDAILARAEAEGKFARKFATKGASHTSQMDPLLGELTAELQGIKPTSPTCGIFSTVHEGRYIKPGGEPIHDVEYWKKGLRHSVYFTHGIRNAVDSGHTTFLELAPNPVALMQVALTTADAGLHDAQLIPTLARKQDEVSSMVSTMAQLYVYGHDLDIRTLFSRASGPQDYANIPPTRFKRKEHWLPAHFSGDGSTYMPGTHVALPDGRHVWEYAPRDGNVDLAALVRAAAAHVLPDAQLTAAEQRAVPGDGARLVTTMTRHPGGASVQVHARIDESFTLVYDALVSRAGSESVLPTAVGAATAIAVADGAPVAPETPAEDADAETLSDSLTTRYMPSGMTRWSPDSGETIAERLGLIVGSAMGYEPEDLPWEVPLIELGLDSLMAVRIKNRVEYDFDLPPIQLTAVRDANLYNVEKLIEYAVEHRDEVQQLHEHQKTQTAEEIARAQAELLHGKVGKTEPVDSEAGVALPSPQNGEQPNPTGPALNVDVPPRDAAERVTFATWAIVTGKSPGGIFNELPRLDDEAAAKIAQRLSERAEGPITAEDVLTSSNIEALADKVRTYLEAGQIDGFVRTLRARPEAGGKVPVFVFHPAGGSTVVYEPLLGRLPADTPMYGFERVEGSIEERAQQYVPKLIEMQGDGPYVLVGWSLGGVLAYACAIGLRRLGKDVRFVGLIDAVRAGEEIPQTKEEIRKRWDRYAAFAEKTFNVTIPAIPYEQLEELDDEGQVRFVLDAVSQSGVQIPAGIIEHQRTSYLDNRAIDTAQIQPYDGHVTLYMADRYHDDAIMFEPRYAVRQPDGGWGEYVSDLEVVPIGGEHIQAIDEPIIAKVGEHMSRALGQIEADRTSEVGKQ
UniProt Q8IDJ8, 1-583: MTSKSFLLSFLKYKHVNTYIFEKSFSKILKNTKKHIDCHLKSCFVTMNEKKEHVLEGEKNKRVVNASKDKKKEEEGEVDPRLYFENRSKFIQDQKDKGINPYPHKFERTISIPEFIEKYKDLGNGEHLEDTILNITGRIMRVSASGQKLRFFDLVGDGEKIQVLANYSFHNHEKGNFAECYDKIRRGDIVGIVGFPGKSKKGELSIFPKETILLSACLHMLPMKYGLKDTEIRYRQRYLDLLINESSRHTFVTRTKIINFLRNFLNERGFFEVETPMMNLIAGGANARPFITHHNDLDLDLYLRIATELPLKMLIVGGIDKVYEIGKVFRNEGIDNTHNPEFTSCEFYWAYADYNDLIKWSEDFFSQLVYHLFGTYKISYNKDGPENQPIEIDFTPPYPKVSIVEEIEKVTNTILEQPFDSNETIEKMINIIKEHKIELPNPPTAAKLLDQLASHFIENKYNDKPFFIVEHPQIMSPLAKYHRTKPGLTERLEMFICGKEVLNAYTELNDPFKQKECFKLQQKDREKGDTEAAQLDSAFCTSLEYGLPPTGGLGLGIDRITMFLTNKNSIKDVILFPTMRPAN
UniProt P9WNZ1, whole entry: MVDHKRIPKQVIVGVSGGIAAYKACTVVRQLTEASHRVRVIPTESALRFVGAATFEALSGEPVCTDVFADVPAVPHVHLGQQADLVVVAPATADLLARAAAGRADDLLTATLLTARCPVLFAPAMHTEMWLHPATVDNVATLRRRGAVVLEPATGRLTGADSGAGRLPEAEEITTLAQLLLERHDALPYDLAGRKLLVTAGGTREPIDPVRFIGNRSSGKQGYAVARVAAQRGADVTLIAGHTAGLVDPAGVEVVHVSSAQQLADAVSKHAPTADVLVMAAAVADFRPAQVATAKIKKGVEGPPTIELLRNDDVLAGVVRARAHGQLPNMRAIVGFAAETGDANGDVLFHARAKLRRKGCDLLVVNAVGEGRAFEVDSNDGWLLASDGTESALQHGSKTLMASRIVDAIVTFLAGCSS

A: 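Assay of Toxoplasma gondii numbers, read through their beta-galactosidase reporter with a colour substrate. Concentration: 10 µM. Higher reads as fewer parasites (inferred from which compounds were picked for retests). Of about 67,000 compounds tested this way, about 260 (0.38%) reached 50% or more in at least one test.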
B: 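Enzyme assay of the thioesterase domain of polyketide synthase 13; the read-out is not stated. Target: Polyketide synthase Pks13, Mycobacterium tuberculosis (UniProt I6X8D2). Tested at 30 µM. The record gives no direction; the compounds picked for IC50 retests had high values, so higher reads as stronger inhibition. Of about 67,000 compounds tested this way, about 300 (0.46%) reached 50% or more in at least one test.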
C: 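Lysine-tRNA ligase, Plasmodium falciparum 3D7 (UniProt Q8IDJ8). Enzyme assay of the cytosolic lysyl-tRNA synthetase in 384-well plates, read by luminescence. Tested at 30 µM. Direction is inferred from only a few compounds that gave an IC50; most scored high, so higher reads as stronger inhibition. About 69,000 compounds were tested under these conditions; 0.071% (about 49) showed 50% or more at least once.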
D: 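Enzyme assay of CoaBC with a phosphate dye (Biomol Green) read at 650 nm. Target: Coenzyme A biosynthesis protein CoaBC, Mycobacterium tuberculosis (UniProt P9WNZ1). Concentration: 30 µM. Direction is inferred from only a few compounds that gave an IC50; most scored high, so higher reads as stronger inhibition. Most strong results did not repeat in a second test. Of about 67,000 compounds tested this way, about 40 (0.06%) reached 50% or more in at least one test.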

Values are the deposited “Percent Effect”, in %.
The controls that fix the scale are not given in the record; negative values are as filed.
Compounds were drawn at random from those tested, without regard to their results.
A dash means the value is not listed here; it may have been measured.

With Cc1cnn(C2CN(CC(O)COCc3ccc4c(c3)OCO4)C2)c1 (centres unmarked) the screen gave B: 14.63%; C: -3.43%; D: 2.829%.
With O=C(O)C(F)(F)F.O=C(O)C(F)(F)F.c1cnc(N2CCOCC3(CCCN(CC4CCOCC4)C3)C2)nc1 (centres unmarked) the screen gave A: -6.704%.
With CC1CCN(S(=O)(=O)N2CCCC(c3cccc(C(=O)O)c3)C2)CC1 (centres unmarked) the screen gave A: -2.957%; C: 2.97%; D: 3.433%.
With Cc1ccc(CN2CCc3[nH]nc(C(=O)N(C)C)c3C2)s1 the screen gave B: -41.6%; C: 6.31%; D: -0.5089%.
With CN1CCCC2(CCN(S(=O)(=O)c3c(Cl)nc4sccn34)C2)C1=O (centres unmarked) the screen gave A: 5.106%; B: -19.09%; C: 0.6957%; D: -1.988%.
With CC(=O)N1CCCCC[C@@H]2[C@@H]1[C@H](c1cccc(F)c1)CN2CCC(N)=O the screen gave B: 19.02%; C: 0.4837%; D: -6.307%.
With O=C1CC2(CCCC2)CC(=O)N1Cc1nc2ncccn2n1 the screen gave A: 7.648%; B: 6.119%; C: 8.819%; D: 7.431%.
With CC(CNC(=O)Nc1ccc(F)cc1Br)N1CCOCC1 (centres unmarked) the screen gave A: 23.53%; B: 0.7743%; C: 1.819%; D: 0.7614%.
With CC(C)Cc1noc(CN(C)C(=O)C2COc3ccccc3C2)n1 (centres unmarked) the screen gave A: 3.756%; B: 0.4463%; C: -1.948%; D: -7.273%.
With COc1cccc(CN2CCCC(Cn3nc(C)nc3C)C2)c1 (centres unmarked) the screen gave A: -25.39%; B: 1.988%; C: 1.055%; D: 12.72%.
With Fc1cccnc1O[C@H]1CN(Cc2ccoc2)[C@@H]2CCCO[C@H]12 the screen gave B: 1.732%; C: -5.073%; D: 4.762%.
With O=C(CN1CC(c2nc(-c3ccco3)no2)C1)NCC1CCCO1.O=C(O)C(=O)O (centres unmarked) the screen gave A: 18.4%.
With O=C1COc2ccc(C(=O)NS(=O)(=O)c3ccccc3Cl)cc2N1 the screen gave A: -4.805%; C: -0.6218%; D: 1.695%.
With COc1ncccc1CNC(=O)C1CC(=O)N(C)C1 (centres unmarked) the screen gave A: 0%; B: -19.03%; C: 4.655%; D: -2.215%.
With Cc1nnc([C@]23COC[C@H]2CN(S(=O)(=O)c2cccnc2)C3)o1 the screen gave B: -4.398%; C: 10.04%; D: 3.96%.
With Nc1cc2c(nn1)CCN(C(=O)c1ccc(-c3ccco3)[nH]c1=O)C2 the screen gave A: 13.17%; B: -24.08%; C: 3.784%; D: 4.032%.
With O=C1N(Cc2ccccc2F)CCCC12CCN(C1CCSCC1)C2 (centres unmarked) the screen gave A: -5.176%; B: -13.79%; C: 4.049%; D: -3.125%.
With CCOC(=O)N1CCC2(CCNC2)C1 (centres unmarked) the screen gave B: -23.08%; C: 7.961%; D: 3.308%.
With Cc1noc(C)c1CN(Cc1ccccc1)C(C)CN1CCOCC1 (centres unmarked) the screen gave A: -1.087%; C: 3.535%; D: 3.846%.
With CS(=O)(=O)NCCNC(=O)NC1(c2ccc(Cl)cc2)CCC1 the screen gave A: 0.9735%; B: -25.48%; C: 4.121%; D: -0.4878%.

2 of the entries, repeated:

| compound | A | B | C | D |
|---|---|---|---|---|
| `O=C1COc2ccc(C(=O)NS(=O)(=O)c3ccccc3Cl)cc2N1` | -4.805 | - | -0.6218 | 1.695 |
| `Nc1cc2c(nn1)CCN(C(=O)c1ccc(-c3ccco3)[nH]c1=O)C2` | 13.17 | -24.08 | 3.784 | 4.032 |

Measurements from “University of Dundee, Small-Polar-MMV Screening Library” (2021), ChEMBL document CHEMBL3988442.